Test results as given in PubChem BioAssay AID504834 (National Center for Advancing Translational Sciences (NCATS), 2011).
Hit rate of the full screen: of about 320,000 compounds, about 22,000 (6.9%) were called active. Inconclusive results, whose numbers are uncertain, are shown with a selection of clear calls. Calls follow the shape of the dose curve; as a rule, active = well fitted inhibition curve with a large enough effect; inconclusive = small, poorly fitted or top-dose-only effect, or another doubt; inactive = no such curve, though single readings can be large or run the other way. Potencies of inconclusive entries are doubtful fits and often do not repeat.

Assay: Primary qHTS for delayed death inhibitors of the malarial parasite plastid, 96 hour incubation
Details: P. falciparum luciferase reporter growth; series mostly up to 28.7 µM; activity change, negative = inhibition: at the top concentration
Summary of the method: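 Luminescence readout: decreased luciferase signal marks inhibited growth of reporter-expressing P. falciparum in infected red cells (2% hematocrit, 0.05% parasitemia final), exposed to compound two generations (96 h, 37 C, 5% CO2).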
% is scaled to controls: 0 for no effect and ±100 for the full control effect; potency is read from the fitted curve at half-maximal effect.

Compound | activity change, negative = inhibition | Potency
O=C(c1ccc(Cl)cc1)C(CN1CCCC1)c1ccccc1 (centres undefined) | inactive: -21.7% | 
O=C(CNC(=O)c1ccc(Br)o1)NNC(=O)c1n[nH]c(=O)c2ccccc12 |  | inconclusive: 10.4 µM [inhibitor, single point]
O=C(NCc1ccc(Cl)cc1)C1CCN(c2nnc(N3CCCC3=O)s2)CC1 | inactive: 21.4% | 
CN(C)c1cc[n+](Cc2c(Cl)cccc2Cl)cc1 |  | active: 0.37 µM
CCC(C)NC(=O)CSc1nnc(-c2cc(-c3ccc(C)cc3)nc3ccccc23)n1N (centres undefined) |  | active: 11.7 µM
CCOC(=O)C(=O)N1CCN(c2nc(-c3ccc(Cl)cc3)cs2)CC1 |  | active: 4.65 µM
CCN(C(=O)COC(=O)C1CC1)c1c(N)n(Cc2ccccc2)c(=O)[nH]c1=O |  | inconclusive: 3.7 µM [inhibitor, partial curve, poor fit]
CCOc1ccc(S(=O)(=O)N2CCC(C(=O)NCCc3ccc(S(N)(=O)=O)cc3)CC2)cc1 |  | inconclusive: 18.5 µM [inhibitor, single point]
Cc1ccc(S(=O)(=O)N(CC(=O)NCCSc2ccccn2)c2ccccc2F)cc1 |  | inconclusive: 18.5 µM [inhibitor, single point]
CCOC(=O)NC(O)C(=O)c1ccc(F)cc1 (centres undefined) |  | inconclusive: 0.0029 µM [inhibitor, full curve, poor fit]
O=C(CCCC(=O)N(CC(=O)NC1CCCCC1)c1cccc(F)c1)Nc1ccccn1 |  | inconclusive: 20.8 µM [inhibitor, partial curve, poor fit]
CCN(CC)C(=O)C1CCCN(C(=O)c2oc3ccc(C)cc3c2C)C1 (centres undefined) | inactive: 28.5% | 
CC(CCc1ccco1)NC(=O)CCc1nnc2ccc(NCc3ccccc3Cl)nn12 (centres undefined) |  | inconclusive: 18.5 µM [inhibitor, single point]
COc1ccc(S(=O)(=O)N2CCC(C(=O)N3CCCCC3)CC2)cc1 |  | inconclusive: 13.1 µM [inhibitor, single point]
COc1ccc(/C=C2\Sc3ccc(C(=O)N4CCc5ccccc5C4)cc3N(C)C2=O)cc1 |  | inconclusive: 18.5 µM [inhibitor, single point]
CC(C)N(C(=O)c1sc2cc([N+](=O)[O-])ccc2c1Cl)C(C)C |  | inconclusive: 20.8 µM [inhibitor, partial curve, poor fit]
COc1cccc(C(NC(=O)c2ccccc2F)NC(=O)c2ccccc2F)c1 |  | inconclusive: 11.7 µM [inhibitor, partial curve, poor fit]
CSc1ccc(C(=O)C2CCCN(Cc3ccc(N4CCNC4=O)cc3)C2)cc1 (centres undefined) |  | inconclusive: 18.5 µM [inhibitor, single point]
Cc1nnc(C)c2c(C)n(Cc3ccc4c(c3)OCO4)c(C)c12 |  | inconclusive: 10.4 µM [inhibitor, single point]
CC(C)(C)NC(=O)/C(=C\c1ccco1)NC(=O)c1cccs1 |  | inconclusive: 14.7 µM [inhibitor, partial curve, poor fit]
O=C(Nc1cccc2ccccc12)c1ccc(F)cc1 | inactive: 45.3% | 
Fc1ccc(SCCc2ccncc2)cc1 |  | inactive
CC(C)(C)OC(=O)NC1CC2CCCC(C1)N2Cc1ccccc1 (centres undefined) |  | inconclusive: 4.15 µM [inhibitor, single point]

A draw from above in order of SMILES length, ascending.
Compound | activity change, negative = inhibition | Potency
CC(C)(C)NC(=O)/C(=C\c1ccco1)NC(=O)c1cccs1 |  | inconclusive: 14.7 µM [inhibitor, partial curve, poor fit]
CCN(CC)C(=O)C1CCCN(C(=O)c2oc3ccc(C)cc3c2C)C1 (centres undefined) | inactive: 28.5% | 
COc1cccc(C(NC(=O)c2ccccc2F)NC(=O)c2ccccc2F)c1 |  | inconclusive: 11.7 µM [inhibitor, partial curve, poor fit]
COc1ccc(/C=C2\Sc3ccc(C(=O)N4CCc5ccccc5C4)cc3N(C)C2=O)cc1 |  | inconclusive: 18.5 µM [inhibitor, single point]

Next results:

Compound | activity change, negative = inhibition | Potency
CC1(C)Cc2ccccc2-c2nc(NCCCO)n(-c3ccccc3)c(=O)c21 |  | inconclusive: 18.5 µM [inhibitor, single point]
C[C@H]1CN=C(N(C)C)N1CCCCc1ccccc1 |  | inconclusive: 13.1 µM [inhibitor, single point]
COc1ccc(N(/N=C2\Sc3ccccc3C2=O)C(C)=O)cc1 |  | inconclusive: 8.28 µM [inhibitor, partial curve, poor fit]
COc1cc2[nH]c(=S)n(NC(=O)CC(C)C)c(=O)c2cc1OC |  | active: 10.4 µM
O=c1c(Cl)nc2cc(Cl)ccc2n1CCNc1ncc(C(F)(F)F)cc1Cl |  | inconclusive: 8.28 µM [inhibitor, partial curve]
Cc1ccc(C)c(CN2C(=O)COc3ccc(C(=O)c4ccccc4C(=O)O)cc32)c1 |  | inconclusive: 16.5 µM [inhibitor, partial curve, poor fit]
C=CCc1ccccc1OCC(O)CNC1CCCC1 (centres undefined) |  | inconclusive: 11.7 µM [inhibitor, single point]
O=C(c1ccco1)N1CCN=C1SCc1cccc(F)c1 |  | inconclusive: 13.1 µM [inhibitor, single point]
Cc1csc(NC(=O)C2CCCCN2S(=O)(=O)c2ccccc2)n1 (centres undefined) | inactive: -0.947% | 
OCC1OC([S-])[C@H](O)C(O)C1O.[Au+] (some centres undefined) |  | active: 4.78 µM
COC(=O)c1cc2occc2n1Cc1nc(-c2ccccc2C)oc1C |  | inconclusive: 16.5 µM [inhibitor, single point]
CCC(OC(=O)C1=Cc2ccccc2OC1)C(=O)NCc1ccco1 (centres undefined) |  | inconclusive: 13.1 µM [inhibitor, single point]
COc1ccc(Cl)cc1NC(=O)c1nnn(CC(=O)Nc2cc(C)cc(C)c2)c1N |  | inconclusive: 18.5 µM [inhibitor, single point]
COc1cccc(NC(=O)N(Cc2ccco2)C(C)c2cccs2)c1 (centres undefined) |  | inconclusive: 18.5 µM [inhibitor, single point]
CC(=O)N1C(c2ccccc2O)C[C@]2(C)CC(=O)NC12 (some centres undefined) |  | inconclusive: 9.28 µM [inhibitor, single point]
CC(=O)Nc1ccc(Nc2nc(-c3sc(NC(C)=O)nc3C)cs2)cc1 |  | inconclusive: 10.4 µM [inhibitor, partial curve, poor fit]
O=C(Nc1ccc(O)cc1C(=O)O)c1ccc2c(c1)C(=O)N(Cc1ccco1)C2=O |  | inconclusive: 18.5 µM [inhibitor, single point]
COc1cccc(NC(=O)Cn2c3ccccc3c3nc4n(c(=O)c32)CCCS4)c1 | inactive: -17.9% | 
CCn1c(C)c(/C=N/Nc2nc3ccccc3s2)c2ccccc21 |  | inconclusive: 18.5 µM [inhibitor, single point]
Cc1c(Cl)cccc1NC(=O)C1CCCN(S(C)(=O)=O)C1 (centres undefined) | inactive: -11.2% | 
CC(C)(C)c1cc2cccnc2n1Cc1cccc(F)c1 |  | inconclusive: 0.0828 µM [inhibitor, full curve, poor fit]
COc1cc(C(=O)OCc2csc(CC(=O)Nc3ccccc3C)n2)ccc1OCC(C)C |  | active: 9.28 µM
O=C(CC1N=C2c3ccccc3N=C(SCc3ccc(F)cc3)N2C1=O)NCc1ccco1 (centres undefined) |  | active: 13.1 µM

Compound | activity change, negative = inhibition | Potency
O=[N+]([O-])c1cccc(OCC(O)CN2CCN(S(=O)(=O)c3cc(Cl)ccc3Cl)CC2)c1 (centres undefined) |  | active: 10.4 µM
COc1ccc(C(CC(=O)N2CCCCC2)c2c(OC)cc(OC)c3ccc(=O)oc23)cc1 (centres undefined) |  | inconclusive: 11.7 µM [inhibitor, single point]
Cc1ccc(S(=O)(=O)CC(C)(O)C(=O)Nc2cccc(C(F)(F)F)c2)cc1 (centres undefined) | inactive: 9.45% | 
O=C(N/N=C/c1ccccn1)c1cc(C2CC2)[nH]n1 | inactive: 13.3% | 
Cc1onc(-c2ccccc2)c1CNC(=O)Nc1ccccc1 |  | inconclusive: 18.5 µM [inhibitor, single point]
O=C(NCCS(=O)CCNC(=O)C(F)(F)F)C(F)(F)F |  | inconclusive: 0.738 µM [inhibitor, full curve, poor fit]
O=c1c2[nH]c3ccccc3c2ncn1Cc1ccncc1 |  | inconclusive: 14.7 µM [inhibitor, single point]
COc1ccccc1CNc1ncnc2cc(OC)c(OC)cc12 |  | inconclusive: 9.28 µM [inhibitor, single point]
CCC(C)Sc1nc2c([nH]c3ccccc32)c(=O)n1C (centres undefined) |  | inconclusive: 18.5 µM [inhibitor, single point]
COc1ccc(C2CC(=O)c3cnn(-c4nc(C)cc(C)n4)c3C2)cc1 (centres undefined) |  | inconclusive: 10.4 µM [inhibitor, single point]
COc1ccc2[nH]c(C(=O)N3CCCN(Cc4ccc(F)cc4)CC3)cc2c1 | inactive: 43.2% | 
O=C(CN1CCN(S(=O)(=O)c2ccc(Br)cc2)CC1)N/N=C/c1cccnc1 |  | inconclusive: 10.4 µM [inhibitor, single point]
Cn1c(SCC(=O)OCc2ccccc2)nnc1-c1ccco1 |  | inconclusive: 11.7 µM [inhibitor, single point]
COc1ccccc1NC(=O)C(=O)c1cn(CC(=O)N2CCCC2)c2ccccc12 | inactive: 23% | 
CCc1ccc(NC(=O)Nc2ccon2)cc1 |  | inconclusive: 9.28 µM [inhibitor, single point]
CCOC(=O)c1ccccc1NC(=O)c1ccc2c(SCC(=O)O)c3c(nc2c1)CCCC3 |  | inconclusive: 18.5 µM [inhibitor, single point]
O=c1c(-c2ccc([N+](=O)[O-])cc2)coc2c(O)c(O)ccc12 |  | inconclusive: 18.5 µM [inhibitor, single point]
c1ccc(Cc2nc3ccccc3n2Cc2ccccc2)cc1 |  | inconclusive: 18.5 µM [inhibitor, single point]
COc1cc(CCC(=O)OCC(=O)Nc2ccc(F)c(F)c2F)cc(OC)c1OC | inactive: 5.88% | 
O=C(NCc1ccccc1)C1CCCN(C(=O)NCc2ccccc2)C1 (centres undefined) | inactive: 9.87% | 
O=C(CSCc1ccco1)N1CCc2ccccc21 |  | inconclusive: 13.1 µM [inhibitor, partial curve]
Cc1ccc(-n2nc(C(=O)O)nc2-c2ccccc2)cc1 |  | inconclusive: 0.0026 µM [inhibitor, full curve, poor fit]
CN1C(=O)c2ccccc2C(C(=O)NCC2CCCO2)C1c1c[nH]c2ccccc12 (centres undefined) |  | inconclusive: 14.7 µM [inhibitor, partial curve]
